Experimental data reported in the supplement of paper PMC7125110.
± gives the standard error. Many of these values have a large error.

B1: glmS ribozyme (parent)
chain: AUAAAAGCGCCAGAACUACAGAAAUGUAGUUGACGAGGAGGAGGUUUAUCGAAUUUUCGGCGGAUGCCUCCAAA

Variants of: B1
Test: KM; higher = weaker cofactor use; RNA array
Details: with glucosamine-6-phosphate
In short: (§1)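 E. coli RNA polymerase transcribed barcoded ribozyme variants in situ on sequenced MiSeq chips, which were tracked via a hybridised Cy3 probe at 37 °C. Tiles were imaged over ~14 h after glucosamine-6-phosphate (40 μM to 10 mM) in HEPES/KCl/Mg(OAc)2 buffer was flowed in. Normalised per-tile medians were fit to one- or two-exponential decays for kobs, and kcat and KM came from weighted Michaelis–Menten fits.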

| Variant | KM |
| --- | --- |
| U47A A53U | 373 ± 260 µM |
| U57A U65G | 416 ± 410 µM |
| A48U U56C | 2570 ± 1600 µM |
| G40C U46A | 1370 ± 880 µM |
| G41C U54C | 1000 ± 590 µM |
| A52C U55G | 22400 ± 2800 µM |
| A42C C67G | 2420 ± 1900 µM |
| A53C G66A | 1670 ± 640 µM |
| U54C U57G | 66500 ± 2300 µM |
| G60A C70U | 1620 ± 820 µM |
| U47G C70G | 43.2 ± 27 µM |
| U47G C70A | 33.9 ± 29 µM |
| U55A C71G | 478 ± 320 µM |
| U47C C68G | 573 ± 80 µM |
| G43U U54A U55A C67G C68U | 10700 ± 7700 µM |
| A52G U57C | 1790 ± 110 µM |
| A52G U57A | 3470 ± 1700 µM |
| A42C U56C | 268 ± 230 µM |
| A42C U56G | 4130 ± 120 µM |
| C58U C67G | 86.5 ± 61 µM |
| G40U U69C | 309 ± 280 µM |
| A48C U56A | 3130 ± 1900 µM |
| U54C G62C | 133 ± 48 µM |
| G40A U54G | 244 ± 190 µM |

| Variant | KM |
| --- | --- |
| U47G C71A | 963 ± 900 µM |
| A53U C68G | 72.8 ± 62 µM |
| U46C U65A | 4190 ± 3100 µM |
| A53G C71A | 572 ± 380 µM |
| A48G U56G | 696 ± 110 µM |
| U57C C71U | 370 ± 290 µM |
| U57C C71G | 144 ± 140 µM |
| A42C G62A | 346 ± 220 µM |
| G40U A53U | 1300 ± 390 µM |
| U55C U57C | 1420 ± 1200 µM |
| G40A A52U | 4800 ± 3200 µM |
| G60C G66A | 756 ± 640 µM |
| A52U A53U | 4210 ± 360 µM |
| U47C C70A | 1300 ± 710 µM |
| G43A U45G C58G | 199 ± 61 µM |
| U57A | 3120 ± 170 µM |
| U57C | 3180 ± 76 µM |
| U55A C68G | 51.2 ± 14 µM |
| A42G U54A | 784 ± 450 µM |
| U56C A64G | 2690 ± 560 µM |
| A42G C50U | 5810 ± 1200 µM |
| A42G G44A | 2550 ± 2000 µM |
| U57C C67U | 789 ± 530 µM |
| U65G U69G | 214 ± 120 µM |

Taken from above:
Value of G40U A53U under KM: 1300 ± 390 µM
Value of U55C U57C under KM: 1420 ± 1200 µM
Value of U47G C71A under KM: 963 ± 900 µM
Value of U57C C71U under KM: 370 ± 290 µM
Value of U57A under KM: 3120 ± 170 µM
Value of A52G U57A under KM: 3470 ± 1700 µM

More entries.

| Variant | KM |
| --- | --- |
| U47C C71A | 3980 ± 2000 µM |
| U65C C71U | 1460 ± 510 µM |
| G41U C58A | 5230 ± 3800 µM |
| U65A G66C | 1400 ± 320 µM |
| A52C | 835 ± 150 µM |
| A48G U55A | 1160 ± 180 µM |
| G40C A53C | 2240 ± 110 µM |
| G40A G44C | 2680 ± 1100 µM |
| U54G A64G | 1450 ± 800 µM |
| U55A | 1770 ± 530 µM |
| U56G C68A | 103 ± 80 µM |
| U56G C68G | 2280 ± 1300 µM |
| U46A A53G | 1090 ± 610 µM |
| A48C C70G | 1030 ± 750 µM |
| A48C C70U | 3470 ± 540 µM |
| U49G G66U | 5640 ± 59 µM |
| U54C U69G | 168 ± 98 µM |
| G41C A53U | 1290 ± 380 µM |
| G41C A53G | 940 ± 530 µM |
| U54G U69A | 42.4 ± 26 µM |
| U45G A48U | 3040 ± 1200 µM |
| G59U C71G | 817 ± 71 µM |
| U49C A53U | 45 ± 30 µM |
| G40A U45A | 510 ± 160 µM |

Variants of: B1
Test: self-cleavage kobs at 640 uM GlcN6P; higher = faster cleavage; RNA array
Details: with glucosamine-6-phosphate
In short: as §1

| Variant | self-cleavage kobs at 640 uM GlcN6P |
| --- | --- |
| U57A U65G | 2.07e-05 ± 2e-05 s⁻¹ |
| A48C U56A | 1.3e-05 ± 1.3e-05 s⁻¹ |
| A48G U56G | 3.5e-05 ± 2.1e-05 s⁻¹ |
| A48G U55A | 3.72e-05 ± 2e-05 s⁻¹ |
| U56G C68A | 2.94e-05 ± 1.9e-05 s⁻¹ |
| U56G C68G | 1.96e-05 ± 1.3e-05 s⁻¹ |

Variants of: B1
Test: self-cleavage kobs at 10000 uM GlcN6P; higher = faster cleavage; RNA array
Details: with glucosamine-6-phosphate
In short: as §1

| Variant | self-cleavage kobs at 10000 uM GlcN6P |
| --- | --- |
| A52C U55G | 1.76e-05 ± 1.3e-05 s⁻¹ |
| U47G C70G | 0.00297 ± 0.0021 s⁻¹ |
| G43A U45G C58G | 2.83e-05 ± 1.7e-05 s⁻¹ |
| U56G C68A | 2.42e-05 ± 1.8e-05 s⁻¹ |

Variants of: B1
Test: self-cleavage kobs at 2500 uM GlcN6P; higher = faster cleavage; RNA array
Details: with glucosamine-6-phosphate
In short: as §1

| Variant | self-cleavage kobs at 2500 uM GlcN6P |
| --- | --- |
| U54C U57G | 1.78e-05 ± 1.2e-05 s⁻¹ |
| G43U U54A U55A C67G C68U | 3.17e-05 ± 2.5e-05 s⁻¹ |
| G43A U45G C58G | 2.54e-05 ± 1.6e-05 s⁻¹ |
| A42G U54A | 0.0466 ± 0.03 s⁻¹ |
| U49G G66U | 1.89e-05 ± 1.3e-05 s⁻¹ |

Variants of: B1
Test: self-cleavage kobs at 160 uM GlcN6P; higher = faster cleavage; RNA array
Details: with glucosamine-6-phosphate
In short: as §1

| Variant | self-cleavage kobs at 160 uM GlcN6P |
| --- | --- |
| U47C C68G | 2.22e-05 ± 2e-05 s⁻¹ |
| U47C C70A | 2.19e-05 ± 1.3e-05 s⁻¹ |
| A48C C70U | 1.93e-05 ± 1.4e-05 s⁻¹ |
| G41C A53U | 3.01e-05 ± 1.8e-05 s⁻¹ |

Variants of: B1
Test: self-cleavage kobs at 40 uM GlcN6P; higher = faster cleavage; RNA array
Details: with glucosamine-6-phosphate
In short: as §1

| Variant | self-cleavage kobs at 40 uM GlcN6P |
| --- | --- |
| U57A | < 1e-05 s⁻¹ |
| G40C A53C | 1.45e-05 ± 8.6e-06 s⁻¹ |
| G41C A53U | 1.63e-05 ± 1.6e-05 s⁻¹ |
| G41C A53G | 3.49e-05 ± 1.9e-05 s⁻¹ |
